Measurements published in PubChem BioAssay AID540276 (National Center for Advancing Translational Sciences (NCATS), 2011).
Several values for one entry are separate records, joined by “and”; a condition that tells them apart may be missing. Identical values can stand only once. About 5,400 (1.8%) of roughly 300,000 compounds were called active. The shares of active, inactive and inconclusive entries below differ from those in the screen. The call rests on the fitted dose curve; tested in HEK293 cells. Potencies beside an inconclusive call are fits to weak or partial responses and may not hold up.

Experiment: qHTS for inhibitors of binding or entry into cells for Marburg Virus
Settings: Marburg virus pseudotyped entry inhibition, cell reporter; activity change, negative = inhibition: at 37.8 µM (top of the series) unless noted
On the % scale 0 is the no-effect control and ±100 the full control effect; potency means the concentration at half of the fitted maximal effect.

Compound	activity change, negative = inhibition	Potency
CCOc1ccc(C(=O)NCC(=O)N2CCCC2)cc1	inactive: 2.09% [at 46.1 µM]	
COc1ccc(N(CC(=O)NCCC(C)C)C(=O)c2snc(C(=O)NC3CCCCC3)c2N)c(OC)c1		inconclusive: 10 µM [inhibitor, single point]
CC(=O)N/C(=C/c1ccc2c(c1)OCO2)C(=O)NCCO		inconclusive: 23.1 µM [activator, single point]
CN(C)CCNC(=O)/C(=C/c1cccc([N+](=O)[O-])c1)NC(=O)c1ccccc1		inconclusive: 0.501 µM [activator, partial curve, poor fit]
CCOc1ccc(NCc2cccn2-c2nnc(N3CCC(C(=O)NCCOC)CC3)s2)cc1		inconclusive: 25.1 µM [inhibitor, single point]
CC(=O)Nc1ccc(N(C(=O)c2ccco2)C(C(=O)NC2CCCC2)c2cccs2)cc1 (stereo not given)	inactive: 7.09%	
O=C(Nc1ccc(NC(=O)c2cccnc2Cl)cc1)c1cccc(Cl)c1	inactive: 3.55% [at 46.1 µM]	
Nc1nc(Nc2ccccc2)nc2c1ncn2[C@@H]1O[C@H](CO)[C@H](O)[C@H]1O		inconclusive: 4.47 µM [inhibitor, full curve]
CC/C(=N\Nc1ccccc1)c1c(O)n(C)c(=O)n(C)c1=O	inactive: 0.142%	
Cn1c(SCc2ccc(F)cc2)nnc1-c1ccccn1		inconclusive: 9.2 µM [activator, partial curve, poor fit]
COc1cccc(-c2nn3c(-c4cc(C)[nH]n4)nnc3s2)c1	inactive: -24.4%	
O=C(OCc1nnc(-c2ccccc2)o1)c1cc(F)c(F)cc1Cl	inactive: 0.0873%	
CN1C(=O)c2cccc3c(S(=O)(=O)N4CCCC4C(=O)O)ccc1c23 (stereo not given)	inactive: 22.6%	
O=C(CCCc1ccncc1)c1ccccc1	inactive: 0.5%	
Cc1ccc2nc(-c3cccc(N)c3)oc2c1		inconclusive: 13 µM [inhibitor, single point]
C/C(=N\NC(=O)C1(C)CC1(Br)Br)c1cccc(NC(=O)C(C)(C)C)c1 (stereo not given)		inconclusive: 0.562 µM [activator, full curve, poor fit]
COCCOC(=O)C1=C(C)NC(=O)CC1c1cc2c(cc1Br)OCO2 (stereo not given)		inactive
O=C(O)C(c1ccccc1)C(O)c1ccc2c(c1)OCO2 (stereo not given)		inconclusive: 10 µM [activator, partial curve, poor fit]
O=C(NCCCc1ccccc1)N1CCOCC1		inconclusive: 17.8 µM [activator, partial curve, poor fit]
N=c1oc2ccc(Br)cc2cc1C(=O)NCc1ccccc1	inactive: -19.7%	
CCCCN1C(C(=O)c2ccccc2)=C(OC(C)=O)c2ccccc2S1(=O)=O		inconclusive: 35.5 µM [inhibitor, single point]
COCc1cc(C)nc(OCC(=O)N/N=C/c2ccc(OC)c(O)c2)c1C#N		inconclusive: 6.51 µM [activator, single point]
CCc1nc2ccccc2c(NC(=O)CN2CC(C)CC(C)C2)c1C (stereo not given)		inconclusive: 12.6 µM [inhibitor, single point]
COc1ccc(NC(=O)CNC(=O)Cn2c(C)cc3ccccc3c2=O)cc1OC		inconclusive: 10 µM [inhibitor, partial curve, poor fit]

Compound	activity change, negative = inhibition	Potency
O=C(CN1CCN(c2ccccc2F)CC1)c1ccc(O)c(O)c1		inconclusive: 35.5 µM [inhibitor, single point]
CCOc1cccc(C(=O)Nc2cc(-c3ccc(C)cc3)no2)c1	inactive: 6.47% [at 46.1 µM]	
COc1ccccc1NS(=O)(=O)c1cc(NC(=O)Cc2n[nH]c(=O)c3ccccc23)ccc1Cl		inconclusive: 31.6 µM [inhibitor, single point]
O=C1c2ccccc2NC(c2cn[nH]c2-c2ccc(Cl)cc2)N1O (stereo not given)		inconclusive: 35.5 µM [inhibitor, partial curve, poor fit]
COc1ccc(/C=C/C(=O)NC2CCCCCC2)cc1S(=O)(=O)N1CCOCC1		inconclusive: 1.46 µM [activator, full curve, poor fit]
CCOc1cc2ccccc2cc1C(=O)Nc1ccccn1		inconclusive: 5.01 µM [activator, full curve, poor fit]
O=C(Cc1csc(Nc2nc(=S)[nH]c3ccccc23)n1)NCc1cccc(Cl)c1		inconclusive: 16.4 µM [inhibitor, partial curve]
Cc1ccc2c(=O)cc(C(=O)Nc3sc4c(c3C(=O)NCc3ccccc3)CCCC4)oc2c1C	inactive: 12.2% [at 46.1 µM]	
O=C(COc1ccc(S(=O)(=O)N2CCOCC2)cc1Cl)NC1CC1	inactive: 8.41% [at 46.1 µM]	
COc1cc(C(c2nnnn2C2CCCC2)N2CCc3ccccc3C2)ccc1O (stereo not given)	inactive: -5.07%	
COc1ccccc1NC(=O)CCC(=O)N(Cc1ccc(OC)c(OC)c1)c1nccs1	inactive: 18.1% [at 46.1 µM]	
Cc1ccc(C)c(N(CC(=O)NCc2ccco2)C(=O)CNS(=O)(=O)c2ccc(F)cc2)c1		inconclusive: 11.2 µM [inhibitor, single point]
Cc1c(/C(O)=C2/C(=O)C(=O)N(Cc3cccnc3)C2c2ccccn2)cnn1-c1ccccc1 (stereo not given)		inconclusive: 17.8 µM [inhibitor, single point]
CO[C@H](c1ccccc1Br)[C@H](C)C=CCCO		inconclusive: 5.31 µM [inhibitor, single point]
COc1ccc2nc(SCc3ccccc3C)nc(C)c2c1		inconclusive: 5.62 µM [activator, single point]
COC(=O)c1c(NC(=O)c2cccc([N+](=O)[O-])c2)sc(C(N)=O)c1C		inconclusive: 35.5 µM [inhibitor, partial curve, poor fit]
Cc1ccc(OCC(=O)Nc2ccc(F)cc2)cc1C	inactive: -7.51%	
Cc1cc(C)c(C(=O)COC(=O)c2ccc([N+](=O)[O-])o2)cc1C	inactive: 2.19% [at 46.1 µM]	
COC(=O)c1sccc1NC(=O)c1c(F)c(F)c(F)c(F)c1F		inconclusive: 35.5 µM [inhibitor, partial curve, poor fit]
O=C(Nc1ccc(S(=O)(=O)Nc2nccs2)cc1)c1cc(-c2ccccc2Cl)nc2ccccc12		inconclusive: 15.8 µM [inhibitor, partial curve]
COc1ccc(NC(=O)c2ccc(CN3CCN(c4ccccc4)CC3)cc2)cc1OC		active: 10 µM
Cc1ccc(N(CC(=O)Nc2ccccc2-c2ccccc2)S(=O)(=O)c2ccccc2)cc1		inconclusive: 25.1 µM [inhibitor, single point]
CC(C)CCCn1c(O)c(/C=C2/C=CC=N2)c(=O)[nH]c1=O	inactive: -12.2%	
COc1cc(C=c2c3ccccc3n3c2cc(-c2ccccc2)[n+]3C)cc(OC)c1OC		inconclusive: 20 µM [inhibitor, partial curve, poor fit]

Compound	activity change, negative = inhibition	Potency
S=C(Nc1ccccc1)Nc1cc(Cl)ccc1Oc1ccccc1	inactive: -7.96%	
Cc1cc(OCCOCCN2CCCC2)ccc1C(C)C		inconclusive: 16.4 µM [inhibitor, partial curve, poor fit]
Cc1ccc(NC(=O)c2nc3nccc(C)n3n2)c(C)c1		inconclusive: 14.1 µM [inhibitor, single point]
CCOc1cccc(C(=O)N(Cc2ccc(CC)cc2)C2CCS(=O)(=O)C2)c1 (stereo not given)	inactive: -16.4% [at 46.1 µM]	
COc1cc(-c2cc(C(=O)Nc3cc(S(=O)(=O)N4CCOCC4)ccc3O)c3ccccc3n2)cc(OC)c1OC		inconclusive: 7.08 µM [inhibitor, partial curve, poor fit]
Cc1nn(CC(C)C)c2sc(C(=O)NC3CC(C)(C)NC(C)(C)C3)cc12		inconclusive: 35.5 µM [inhibitor, single point]
COc1cc(/C=C2\SC(N)=NC2=O)cc(OC)c1		inconclusive: 3.55 µM [inhibitor, full curve, poor fit]
Cn1c(CSc2nc3ccccc3n2C)nc2ccccc21		inconclusive: 0.146 µM [inhibitor, full curve, poor fit]
O=C(O)c1ccc(/C=N/O)cc1	inactive: -3.82% [at 46.1 µM]	
COc1ccc(/C=C/C(=O)Nc2ccccc2C(=O)O)cc1OC		active: 1.12 µM and active: 1.46 µM
CCOc1cc(C(=O)Nc2cccc(C(C)=O)c2)ccc1OCC(=O)N1CCCCC1		inconclusive: 35.5 µM [inhibitor, single point]
Cc1ccc(N2C(=O)NC(=O)/C(=C\C=C\c3ccco3)C2=O)cc1C		inconclusive: 29.1 µM [inhibitor, single point]
O=C(Nc1ccc(N2CCN(C(=O)c3ccco3)CC2)c(Cl)c1)c1c(F)c(F)c(F)c(F)c1F		inconclusive: 35.5 µM [inhibitor, single point]
O=C(NCCc1cccnc1)C1CCC(=O)N(Cc2cccc(C(F)(F)F)c2)C1 (stereo not given)	inactive: -4.09%	
COc1cccc(OC)c1C(=O)NNC(=O)c1cccc(COc2ccc3c(c2)CCC3)c1		inconclusive: 6.31 µM [inhibitor, partial curve, poor fit]
CC(C)c1ccccc1NC(=O)c1ccccc1NC(=O)C1CCCCC1		inconclusive: 16.4 µM [inhibitor, partial curve, poor fit]
Cc1ccc2c(c1)cc(C(=O)NCc1ccccc1)n2C		active: 0.631 µM
COc1ccc(-c2nc3ccc(NS(=O)(=O)c4ccc(Cl)cc4)cc3o2)cc1	inactive: 1.61% [at 46.1 µM]	
Cc1[nH]c2ccccc2c1/C=N/NC(N)=S		inconclusive: 17.8 µM [inhibitor, partial curve, poor fit]
COc1cccc(NC(=O)CN(C)C(=O)c2sc3cc(Cl)ccc3c2Cl)c1		inconclusive: 11.2 µM [inhibitor, single point]
Cc1ccc(C(=O)Cc2nc3ccccc3[nH]2)cc1	inactive: 17.6% [at 46.1 µM]	
COc1cc(/C=C2\SC(=S)N(NC(=O)c3ccccc3O)C2=O)ccc1O		inconclusive: 35.5 µM [inhibitor, single point]
